Results as given in the supplement of paper PMC11732987, “Enantioselective OTUD7B fragment discovery through chemoproteomics screening and high-throughput optimisation” (Communications Chemistry, 2025).
The list shows a part of the results. The data scatter; read single values as rough.

The chains behind the UniProt entries cited, without tags or fusion partners. Where a name states a change or a piece, a line headed by the entry shows the natural chain unless it says otherwise. Residues count along the entry.
UniProt Q13480, 365-384: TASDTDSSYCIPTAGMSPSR
UniProt Q14C86, 735-754: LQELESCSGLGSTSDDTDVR
UniProt Q96AY3: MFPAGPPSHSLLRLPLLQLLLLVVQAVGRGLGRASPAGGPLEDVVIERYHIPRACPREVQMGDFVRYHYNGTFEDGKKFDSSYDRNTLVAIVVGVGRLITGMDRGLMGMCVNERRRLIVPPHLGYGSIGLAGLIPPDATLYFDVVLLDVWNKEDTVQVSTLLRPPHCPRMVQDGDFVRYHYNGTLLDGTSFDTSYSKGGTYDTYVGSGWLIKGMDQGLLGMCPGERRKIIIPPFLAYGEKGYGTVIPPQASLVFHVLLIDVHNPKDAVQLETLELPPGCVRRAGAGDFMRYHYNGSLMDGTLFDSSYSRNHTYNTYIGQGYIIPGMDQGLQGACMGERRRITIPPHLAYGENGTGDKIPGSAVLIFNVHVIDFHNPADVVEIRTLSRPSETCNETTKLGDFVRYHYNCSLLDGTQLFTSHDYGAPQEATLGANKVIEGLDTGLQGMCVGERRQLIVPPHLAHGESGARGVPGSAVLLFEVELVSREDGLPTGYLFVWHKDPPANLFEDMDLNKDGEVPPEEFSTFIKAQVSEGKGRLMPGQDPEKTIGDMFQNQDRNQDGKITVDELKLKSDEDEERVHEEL
UniProt P85037, 236-259: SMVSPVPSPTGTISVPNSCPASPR
UniProt P22570: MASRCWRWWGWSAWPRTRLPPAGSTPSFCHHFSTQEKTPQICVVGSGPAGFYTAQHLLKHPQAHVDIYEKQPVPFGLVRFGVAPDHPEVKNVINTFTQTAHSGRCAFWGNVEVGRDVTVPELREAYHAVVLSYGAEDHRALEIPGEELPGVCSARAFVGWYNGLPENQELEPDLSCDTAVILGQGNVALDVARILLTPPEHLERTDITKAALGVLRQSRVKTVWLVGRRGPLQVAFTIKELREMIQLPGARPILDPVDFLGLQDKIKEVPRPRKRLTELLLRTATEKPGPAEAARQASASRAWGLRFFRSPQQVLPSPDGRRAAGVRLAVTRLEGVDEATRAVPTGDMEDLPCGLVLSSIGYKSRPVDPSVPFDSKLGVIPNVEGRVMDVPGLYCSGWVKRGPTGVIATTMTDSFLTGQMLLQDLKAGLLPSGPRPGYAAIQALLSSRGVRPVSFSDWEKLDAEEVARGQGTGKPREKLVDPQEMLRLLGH
UniProt P22830: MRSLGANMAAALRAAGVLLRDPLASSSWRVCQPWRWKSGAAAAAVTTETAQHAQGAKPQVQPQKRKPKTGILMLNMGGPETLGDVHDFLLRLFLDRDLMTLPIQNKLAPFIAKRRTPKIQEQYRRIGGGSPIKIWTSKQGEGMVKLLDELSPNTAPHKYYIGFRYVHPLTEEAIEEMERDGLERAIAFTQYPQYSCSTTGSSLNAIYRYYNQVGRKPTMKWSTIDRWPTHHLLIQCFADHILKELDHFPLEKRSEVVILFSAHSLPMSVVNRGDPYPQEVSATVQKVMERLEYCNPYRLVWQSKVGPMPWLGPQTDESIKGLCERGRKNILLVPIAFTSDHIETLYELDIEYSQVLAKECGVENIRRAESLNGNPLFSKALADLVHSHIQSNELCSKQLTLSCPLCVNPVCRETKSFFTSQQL
UniProt O75369, whole entry, looked up: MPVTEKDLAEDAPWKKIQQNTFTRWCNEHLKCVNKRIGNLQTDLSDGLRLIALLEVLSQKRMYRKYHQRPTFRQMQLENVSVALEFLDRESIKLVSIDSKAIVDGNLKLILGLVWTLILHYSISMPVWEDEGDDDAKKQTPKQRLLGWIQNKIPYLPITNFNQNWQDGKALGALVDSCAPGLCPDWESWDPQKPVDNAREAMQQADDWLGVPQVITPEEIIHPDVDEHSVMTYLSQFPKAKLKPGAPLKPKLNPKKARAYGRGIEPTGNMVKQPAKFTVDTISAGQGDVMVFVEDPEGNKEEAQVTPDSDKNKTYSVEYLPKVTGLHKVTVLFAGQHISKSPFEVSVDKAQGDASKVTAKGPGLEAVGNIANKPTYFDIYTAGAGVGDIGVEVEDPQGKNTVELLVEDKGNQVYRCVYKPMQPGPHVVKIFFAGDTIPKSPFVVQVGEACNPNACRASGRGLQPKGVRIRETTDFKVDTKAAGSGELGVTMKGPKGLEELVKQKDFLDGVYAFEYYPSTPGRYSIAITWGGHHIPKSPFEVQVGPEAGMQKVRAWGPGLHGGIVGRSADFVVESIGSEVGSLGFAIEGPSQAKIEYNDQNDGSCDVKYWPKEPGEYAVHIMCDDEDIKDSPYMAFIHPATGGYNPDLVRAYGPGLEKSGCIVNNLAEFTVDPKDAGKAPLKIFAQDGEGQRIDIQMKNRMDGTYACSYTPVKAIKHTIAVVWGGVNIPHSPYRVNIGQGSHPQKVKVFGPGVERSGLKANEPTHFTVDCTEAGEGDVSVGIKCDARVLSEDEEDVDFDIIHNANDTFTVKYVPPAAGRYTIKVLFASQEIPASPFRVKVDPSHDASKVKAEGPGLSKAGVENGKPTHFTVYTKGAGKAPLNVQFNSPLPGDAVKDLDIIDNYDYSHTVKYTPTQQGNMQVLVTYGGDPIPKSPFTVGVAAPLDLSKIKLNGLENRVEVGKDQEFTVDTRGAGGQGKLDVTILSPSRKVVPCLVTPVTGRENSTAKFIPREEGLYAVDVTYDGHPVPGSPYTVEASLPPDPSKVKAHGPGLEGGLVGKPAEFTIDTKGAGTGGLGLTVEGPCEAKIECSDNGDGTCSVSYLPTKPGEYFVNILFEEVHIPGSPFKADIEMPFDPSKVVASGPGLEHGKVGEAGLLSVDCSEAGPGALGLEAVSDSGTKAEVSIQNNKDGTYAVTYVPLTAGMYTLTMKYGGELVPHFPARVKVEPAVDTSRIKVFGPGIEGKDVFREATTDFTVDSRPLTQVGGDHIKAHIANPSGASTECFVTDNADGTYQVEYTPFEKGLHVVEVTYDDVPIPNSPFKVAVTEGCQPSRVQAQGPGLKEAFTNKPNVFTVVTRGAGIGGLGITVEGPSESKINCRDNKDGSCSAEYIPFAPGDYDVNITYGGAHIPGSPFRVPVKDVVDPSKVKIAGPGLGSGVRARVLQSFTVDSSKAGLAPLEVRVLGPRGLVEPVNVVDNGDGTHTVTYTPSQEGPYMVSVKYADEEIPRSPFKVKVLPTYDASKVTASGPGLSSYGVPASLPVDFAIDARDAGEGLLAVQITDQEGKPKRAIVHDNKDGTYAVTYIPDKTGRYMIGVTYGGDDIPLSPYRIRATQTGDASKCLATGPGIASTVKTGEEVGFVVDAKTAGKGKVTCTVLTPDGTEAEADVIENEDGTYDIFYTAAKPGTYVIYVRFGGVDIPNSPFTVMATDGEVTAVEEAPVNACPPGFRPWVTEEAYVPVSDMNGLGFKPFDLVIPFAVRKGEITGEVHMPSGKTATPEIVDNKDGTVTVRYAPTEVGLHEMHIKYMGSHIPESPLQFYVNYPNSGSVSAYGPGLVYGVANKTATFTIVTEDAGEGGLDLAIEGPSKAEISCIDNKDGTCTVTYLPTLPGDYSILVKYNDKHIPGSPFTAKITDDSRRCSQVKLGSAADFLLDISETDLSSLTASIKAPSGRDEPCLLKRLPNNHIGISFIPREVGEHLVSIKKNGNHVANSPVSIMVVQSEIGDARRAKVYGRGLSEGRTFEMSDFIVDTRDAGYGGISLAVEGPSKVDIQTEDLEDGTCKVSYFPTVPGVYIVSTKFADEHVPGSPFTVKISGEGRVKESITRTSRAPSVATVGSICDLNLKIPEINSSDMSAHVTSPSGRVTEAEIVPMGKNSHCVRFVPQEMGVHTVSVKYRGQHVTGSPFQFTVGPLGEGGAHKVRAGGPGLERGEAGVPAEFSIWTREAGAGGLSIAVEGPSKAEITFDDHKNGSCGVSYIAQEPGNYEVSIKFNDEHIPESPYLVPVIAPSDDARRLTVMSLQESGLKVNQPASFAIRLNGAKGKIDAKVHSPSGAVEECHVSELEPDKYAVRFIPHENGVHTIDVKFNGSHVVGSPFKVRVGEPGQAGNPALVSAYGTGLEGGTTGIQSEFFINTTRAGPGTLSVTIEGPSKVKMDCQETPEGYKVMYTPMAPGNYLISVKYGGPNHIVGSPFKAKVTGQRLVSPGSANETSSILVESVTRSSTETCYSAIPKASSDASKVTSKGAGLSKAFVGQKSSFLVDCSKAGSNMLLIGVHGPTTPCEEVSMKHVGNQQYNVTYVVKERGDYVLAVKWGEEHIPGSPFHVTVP
UniProt Q9H334, 234-266: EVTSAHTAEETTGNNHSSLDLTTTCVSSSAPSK
UniProt Q9H334, 11-33: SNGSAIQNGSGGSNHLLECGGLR
UniProt Q13643: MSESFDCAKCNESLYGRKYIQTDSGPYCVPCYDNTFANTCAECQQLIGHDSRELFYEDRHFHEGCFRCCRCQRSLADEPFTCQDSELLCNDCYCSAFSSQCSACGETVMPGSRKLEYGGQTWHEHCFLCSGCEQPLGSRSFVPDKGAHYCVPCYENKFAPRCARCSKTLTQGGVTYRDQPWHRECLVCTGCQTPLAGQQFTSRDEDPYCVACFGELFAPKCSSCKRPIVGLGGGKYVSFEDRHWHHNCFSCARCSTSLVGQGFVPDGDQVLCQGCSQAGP
UniProt Q13045: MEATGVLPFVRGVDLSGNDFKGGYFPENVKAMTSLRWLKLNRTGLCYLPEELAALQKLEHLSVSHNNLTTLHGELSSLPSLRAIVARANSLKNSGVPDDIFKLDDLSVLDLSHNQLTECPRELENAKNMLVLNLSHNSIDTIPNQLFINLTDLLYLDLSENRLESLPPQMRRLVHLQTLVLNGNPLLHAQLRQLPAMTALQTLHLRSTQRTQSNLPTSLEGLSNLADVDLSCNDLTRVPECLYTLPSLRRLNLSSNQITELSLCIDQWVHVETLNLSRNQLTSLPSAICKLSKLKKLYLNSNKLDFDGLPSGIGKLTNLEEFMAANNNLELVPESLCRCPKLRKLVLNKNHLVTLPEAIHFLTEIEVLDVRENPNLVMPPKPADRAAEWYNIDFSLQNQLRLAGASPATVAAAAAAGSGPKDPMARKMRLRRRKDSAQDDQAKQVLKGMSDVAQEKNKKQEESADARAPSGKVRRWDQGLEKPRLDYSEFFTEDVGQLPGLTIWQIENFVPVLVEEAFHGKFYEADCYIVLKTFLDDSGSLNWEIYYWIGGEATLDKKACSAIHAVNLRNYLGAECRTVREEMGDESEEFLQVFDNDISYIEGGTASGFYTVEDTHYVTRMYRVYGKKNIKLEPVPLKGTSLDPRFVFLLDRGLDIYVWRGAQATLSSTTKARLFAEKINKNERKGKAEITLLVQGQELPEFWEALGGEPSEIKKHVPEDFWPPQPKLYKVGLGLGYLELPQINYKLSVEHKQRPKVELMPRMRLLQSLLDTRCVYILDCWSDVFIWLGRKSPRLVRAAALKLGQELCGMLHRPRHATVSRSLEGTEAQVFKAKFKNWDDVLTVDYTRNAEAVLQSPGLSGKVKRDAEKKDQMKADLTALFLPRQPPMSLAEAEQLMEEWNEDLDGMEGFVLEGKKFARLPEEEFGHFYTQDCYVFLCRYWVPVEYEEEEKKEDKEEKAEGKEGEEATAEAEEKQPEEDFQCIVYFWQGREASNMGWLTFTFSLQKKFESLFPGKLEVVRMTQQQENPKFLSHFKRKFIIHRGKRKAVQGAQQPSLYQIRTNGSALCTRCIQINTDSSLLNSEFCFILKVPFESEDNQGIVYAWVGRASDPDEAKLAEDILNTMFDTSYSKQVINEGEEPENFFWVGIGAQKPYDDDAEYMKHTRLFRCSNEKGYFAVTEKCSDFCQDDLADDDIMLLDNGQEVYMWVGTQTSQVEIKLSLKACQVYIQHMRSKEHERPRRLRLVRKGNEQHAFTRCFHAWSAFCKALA
UniProt P22455: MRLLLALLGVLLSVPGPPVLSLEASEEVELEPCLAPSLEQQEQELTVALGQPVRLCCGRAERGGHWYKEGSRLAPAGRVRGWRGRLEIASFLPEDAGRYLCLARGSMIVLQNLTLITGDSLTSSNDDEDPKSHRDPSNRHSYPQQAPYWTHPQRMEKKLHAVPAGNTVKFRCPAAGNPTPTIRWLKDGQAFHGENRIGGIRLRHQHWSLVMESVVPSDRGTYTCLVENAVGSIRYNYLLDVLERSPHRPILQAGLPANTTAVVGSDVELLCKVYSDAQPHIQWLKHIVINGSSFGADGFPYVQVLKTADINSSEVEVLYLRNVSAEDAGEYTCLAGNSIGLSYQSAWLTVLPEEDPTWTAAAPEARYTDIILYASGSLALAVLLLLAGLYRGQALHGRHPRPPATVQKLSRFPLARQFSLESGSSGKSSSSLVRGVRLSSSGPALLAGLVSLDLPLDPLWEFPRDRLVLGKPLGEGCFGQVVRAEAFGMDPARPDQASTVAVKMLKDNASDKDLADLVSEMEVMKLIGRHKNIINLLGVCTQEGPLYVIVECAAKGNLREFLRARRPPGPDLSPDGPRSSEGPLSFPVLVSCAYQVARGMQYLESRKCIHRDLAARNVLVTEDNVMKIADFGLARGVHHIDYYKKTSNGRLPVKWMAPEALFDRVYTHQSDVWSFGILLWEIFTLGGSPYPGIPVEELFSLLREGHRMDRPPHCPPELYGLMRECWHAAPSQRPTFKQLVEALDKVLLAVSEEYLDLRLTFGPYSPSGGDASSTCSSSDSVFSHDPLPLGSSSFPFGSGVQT
UniProt Q9BZ67, 236-255: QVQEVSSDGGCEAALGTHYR

Assays:
[1] = compound: ClCC(=O)N[C@@H]1CCCc2ccccc12; test: log2 mean competition ratio of IA-DTB cysteine labelling (DMSO/compound) (log2 ratio); higher = stronger cysteine engagement by compound; settings: treatment time: 4 h, cell line lysate: HEK293T
Procedure: (§1)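 IA-DTB competitive cysteine chemoproteomics in HEK293T RIPA lysate. Lysates were treated with compound 29 or 30 at 50 or 200 µM for 4 h, then IA-DTB (500 µM, 1 h), trypsin-digested, NeutrAvidin-enriched and analysed by diaPASEF. Competition ratio = intensity DMSO / intensity compound (n=4 treated, n=64 DMSO); binding: mean log2 CR ≥ 1 and p ≤ 0.05 plus QC filters. Target is the cysteine site.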

[2] = compound: ClCC(=O)N[C@H]1CCCc2ccccc12; test: as above; settings: treatment time: 4 h, cell line lysate: HEK293T
Procedure: as §1

Target	log2 mean competition ratio ([1]; 50 µM)	log2 mean competition ratio ([1]; 200 µM)	log2 mean competition ratio ([2]; 50 µM)	log2 mean competition ratio ([2]; 200 µM)
FBXL18 C423 (UniProt Q96ME1)	-0.199	0.156	-0.0768	0.133
GAB1 C8 (UniProt Q13480)	0.0686	-0.00887	-0.0811	0.267
GARRE1 C196	0.0842	-0.0885	-0.183	0.0128
GAPVD1 C568 (UniProt Q14C86)	0.0118	0.193	0.556	0.193
GAK C472 (UniProt O14976)	0.25	0.0554	0.0794	0.0125
FHIP2B C93	-0.296	-0.328	-0.399	0.0185
FBXO5 C389 (UniProt Q9UKT4)	0.164	-0.111	0.64	-0.247
FLNA C2582	-0.221	-0.106	0.165	0.0376
GAB2 C9 (UniProt Q9UQC2)	0.16	-0.155	-0.147	0.564
FBXO38 C791 (UniProt Q6PIJ6)	-0.137	-0.0164	0.033	0.181
FRYL C560 (UniProt O94915)	0.134	-0.0619	0.158	-0.14
FTSJ1 C49 (UniProt Q9UET6)	0.225	0.133	0.0665	0.205
GAB2 C406 (UniProt Q9UQC2)	0.113	-0.404	-0.263	0.269
FHIP2A C507	-0.133	0.338	-0.281	0.142
GART C506	-0.092	-0.062	0.127	-0.0763
FUCA2 C269 (UniProt Q9BTY2)	0.0972	0.272	0.387	0.356
FKBP10 C447 (UniProt Q96AY3)	-0.288	0.225	0.246	0.257
FKBP5 C394 (UniProt Q13451)	0.317	0.0976	0.606	0.163
GABPA C338 (UniProt Q06546)	0.181	-0.32	0.463	-0.209
FBXO3 C136 (UniProt Q9UK99)	-0.339	0.0483	-0.241	-0.0551
FPGT C447 (UniProt O14772)	0.315	0.0821	0.241	-0.038
FMNL3 C623 (UniProt Q8IVF7)	0.0515	0.153	-0.412	0.157
FOXK1 C254 (UniProt P85037)	0.0986	0.441	0.0637	0.071
FLNA C1018	-0.153	0.101	-0.319	0.0554
FHL2 C254 (UniProt Q14192)	0.622	0.154	0.214	0.256

Target	log2 mean competition ratio ([1]; 50 µM)	log2 mean competition ratio ([1]; 200 µM)	log2 mean competition ratio ([2]; 50 µM)	log2 mean competition ratio ([2]; 200 µM)
FGD1 C739	-0.13	-0.00335	-0.431	-0.219
FASN C223	0.102	-0.14	0.142	0.0972
FBLIM1 C35	-0.182	0.32	0.0538	0.125
FZD3 C600	0.135	0.232	0.484	0.238
FTSJ3 C577 (UniProt Q8IY81)	-0.284	0.000919	-0.101	0.103
FBL C99 (UniProt P22087)	0.0716	0.0322	0.152	-0.0109
FBXW8 C184 (UniProt Q8N3Y1)	0.111	-0.221	0.537	-0.0495
FIGNL1 C358 (UniProt Q6PIW4)	-0.358	0.000382	0.105	-0.00935
GART C646	0.0583	-0.0304	0.197	-0.0425
FAS C304 (UniProt P25445)	0.12	-0.00879	0.252	0.0112
FDXR C152 (UniProt P22570)	-0.239	0.103	-0.14	0.049
FBN2 C149 (UniProt P35556)	0.135	0.0651	0.315	0.355
FAT1 C3023 (UniProt Q14517)	0.0175	-0.172	-0.215	0.0142
GALK2 C303 (UniProt Q01415)	0.55	-0.0474	0.246	0.165
FSCN1 C80 (UniProt Q16658)	-0.14	0.0884	-0.335	0.101
FECH C395 (UniProt P22830)	0.143	0.355	-0.158	0.0787
FLCN C335 (UniProt Q8NFG4)	-0.185	0.129	0.348	0.447
FLNB C1326 (UniProt O75369)	-0.204	0.124	-0.349	-0.01
FAT4 C4166 (UniProt Q6V0I7)	-0.158	0.0687	-0.349	0.0224
FSCN1 C19 (UniProt Q16658)	0.0351	-0.0586	0.39	-0.0959
FOXP1 C258 (UniProt Q9H334)	-0.593	-0.104	0.121	-0.352
FBN2 C89 (UniProt P35556)	0.109	0.238	0.156	0.231
FARS2 C334 (UniProt O95363)	-0.212	-0.188	-0.216	-0.0399
FBXO21 C66 (UniProt O94952)	-0.0462	-0.264	-0.224	-0.0147
FTO C104 (UniProt Q9C0B1)	-0.124	0.133	-0.433	-0.0357

Target	log2 mean competition ratio ([1]; 50 µM)	log2 mean competition ratio ([1]; 200 µM)	log2 mean competition ratio ([2]; 50 µM)	log2 mean competition ratio ([2]; 200 µM)
GANAB C502 (UniProt Q14697)	-0.25	0.343	-0.084	0.213
GARS1 C461	-0.0889	-0.134	0.383	-0.049
GAPVD1 C1396 (UniProt Q14C86)	0.0116	0.119	0.66	0.31
FIG4 C839 (UniProt Q92562)	0.119	0.151	0.0452	0.24
FNBP4 C673 (UniProt Q8N3X1)	-0.366	0.361	-0.345	0.186
GADD45GIP1 C124 (UniProt Q8TAE8)	0.271	0.0312	0.0552	-0.0549
FHL3 C10 (UniProt Q13643)	0.117	0.0488	0.125	0.0198
FLNB C1868 (UniProt O75369)	-0.0616	-0.279	0.0852	-0.0521
FASN C630	0.318	0.237	0.81	0.97
FLII C241 (UniProt Q13045)	-0.0189	-0.11	-0.08	0.0383
GART C298	-0.0901	-0.378	-0.205	-0.00443
FKBP4 C396 (UniProt Q02790)	0.0671	-0.137	0.215	-0.0356
FGFR4 C172 (UniProt P22455)	-0.152	-0.0652	-0.215	0.158
FASTKD2 C366 (UniProt Q9NYY8)	-0.16	-0.151	0.265	0.0173
FKBP5 C215 (UniProt Q13451)	-0.0507	-0.304	-0.453	-0.282
FOXM1 C526	0.834	0.394	-0.0574	0.507
FIGNL1 C54 (UniProt Q6PIW4)	–	0.075	–	0.422
FZD2 C499 (UniProt Q14332)	-0.224	0.3	0.0898	0.264
FHL2 C132 (UniProt Q14192)	-0.087	-0.162	0.288	0.103
FRMD8 C246 (UniProt Q9BZ67)	-0.645	0.519	-0.233	0.457
FASTKD5 C525 (UniProt Q7L8L6)	-0.0348	0.0847	0.132	-0.163
FASTKD5 C708 (UniProt Q7L8L6)	0.28	-0.251	0.58	0.0859
FPGS C171 (UniProt Q05932)	-0.0838	-0.33	0.15	-0.0738
FASN C135	-0.21	-0.0302	-0.375	-0.0752
FXR2 C270 (UniProt P51116)	0.514	0.325	-0.118	0.0314

Single records, as listed above. Values in the order: log2 mean competition ratio ([1]; 50 µM) | log2 mean competition ratio ([1]; 200 µM) | log2 mean competition ratio ([2]; 50 µM) | log2 mean competition ratio ([2]; 200 µM)
FHL3 C10 (UniProt Q13643) is listed with 0.117 | 0.0488 | 0.125 | 0.0198
GADD45GIP1 C124 (UniProt Q8TAE8) is listed with 0.271 | 0.0312 | 0.0552 | -0.0549

Remaining list, next part.

Target	log2 mean competition ratio ([1]; 50 µM)	log2 mean competition ratio ([1]; 200 µM)	log2 mean competition ratio ([2]; 50 µM)	log2 mean competition ratio ([2]; 200 µM)
GAB1 C374 (UniProt Q13480)	-0.123	0.18	0.295	0.393
FUBP1 C148 (UniProt Q96AE4)	0.17	-0.187	0.117	-0.153
FBXO10 C778	-0.176	0.226	-0.187	0.0486
FNBP4 C108 (UniProt Q8N3X1)	0.0506	0.18	0.469	0.215
FRMD8 C191 (UniProt Q9BZ67)	-0.169	0.21	-0.203	0.104
FN3KRP C24 (UniProt Q9HA64)	0.465	0.221	0.414	-0.058
FRMD6 C531	0.103	-0.0101	0.473	0.289
FN3KRP C11 (UniProt Q9HA64)	-0.0603	0.0265	-0.341	0.0842
FBXL19 C670 (UniProt Q6PCT2)	-0.366	0.671	-0.184	0.79
FTSJ3 C197 (UniProt Q8IY81)	-0.182	0.26	-0.14	-0.108
FBXL20 C135 (UniProt Q96IG2)	0.103	0.196	-0.0623	0.189
FBXL18 C513 (UniProt Q96ME1)	–	0.235	0.0215	0.00338
FLNB C2501 (UniProt O75369)	-0.0906	-0.0479	-0.207	-0.0376
FARSB C255 (UniProt Q9NSD9)	-0.178	-0.24	-0.272	-0.129
GALK1 C203 (UniProt P51570)	-0.254	-0.122	0.633	0.0847
FOXJ2 C145 (UniProt Q9P0K8)	-0.156	-0.304	0.151	-0.0187
FBLN1 C341 (UniProt P23142)	-0.00519	–	-0.13	–
FER C785 (UniProt P16591)	0.0382	0.185	-0.125	0.314
FLII C289 (UniProt Q13045)	-0.0548	-0.0193	0.0161	0.0642
FASTKD3 C594 (UniProt Q14CZ7)	-0.0999	0.147	-0.248	-0.000307
GAPVD1 C741 (UniProt Q14C86)	-0.4	-0.179	0.276	0.0956
FBXL3 C331	-0.127	0.113	-0.0985	0.167
FARP2 C196	-0.00216	0.207	0.129	0.156
GAPVD1 C1160 (UniProt Q14C86)	0.0273	-0.0683	-0.251	-0.315
FOXP1 C29 (UniProt Q9H334)	-0.109	0.327	-0.324	0.139
